Source: PubChem BioAssay AID1259405 (NCATS, 2018)
The whole screen tested about 50,000 reagents; shown is an unselected part. About 4,000 of them (8%) were called active. 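Mouse siRNA library applied to hamster cells; one well for each siRNA.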 Unmarked entries are inactive. The numbers tell different reagents against one gene apart.

- Test: 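Knock-downs that lift recombinant protein yield in hamster ovary cells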 (primary screen)
- Cells: Chinese hamster CHO-K1 ovary cells with stable secreted eGFP expression
- Reagents: single siRNA against mouse genes, 0.8 pmol siRNA per well (2 µl of 400 nM stock)
- Timing: 3 days
- Read-out: 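Per-well intracellular GFP measured by laser scanning cytometry, plus viability from ATP luminescence, each relative to plate median of non-targeting control wells, in %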
- Reading the numbers: GFP, % of control: higher = more GFP per well, higher productivity; viability (ATP), % of control: higher = more viable cells (more ATP)
- Call rule: 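Called active when intracellular GFP, relative to negative control, is at or above 120%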

Target gene	siRNA no.	GFP, % of control	viability (ATP), % of control
Vmn1r203 (vomeronasal 1 receptor 203)	1	37.9	56.9
Vmn1r203 (vomeronasal 1 receptor 203)	2	61.5	96.6
Vmn1r203 (vomeronasal 1 receptor 203)	3	70.1	47.1
Sgsm3 (small G protein signaling modulator 3)	1	97.2	75.2
Sgsm3 (small G protein signaling modulator 3)	2	52	44.3
Sgsm3 (small G protein signaling modulator 3)	3	28	21.3
F630111L10Rik (RIKEN cDNA F630111L10 gene)	1	71.1	81.2
F630111L10Rik (RIKEN cDNA F630111L10 gene)	2	59	63.9
F630111L10Rik (RIKEN cDNA F630111L10 gene)	3	146 (active)	61.2
Myo7a (myosin VIIA)	1	53.2	45.7
Myo7a (myosin VIIA)	2	87	95.6
9330132A10Rik (RIKEN cDNA 9330132A10 gene)	1	82.2	68.5
9330132A10Rik (RIKEN cDNA 9330132A10 gene)	2	71.8	65.6
9330132A10Rik (RIKEN cDNA 9330132A10 gene)	3	89.8	97.9
Clec4e (C-type lectin domain family 4, member e)	1	58	42.3
Clec4e (C-type lectin domain family 4, member e)	2	61.2	82.1
Clec4e (C-type lectin domain family 4, member e)	3	65.1	51.5
D930020B18Rik (RIKEN cDNA D930020B18 gene)	1	58.8	60.9
D930020B18Rik (RIKEN cDNA D930020B18 gene)	2	84.8	68
D930020B18Rik (RIKEN cDNA D930020B18 gene)	3	80.7	85.4
Mrgprh (MAS-related GPR, member H)	1	59	102
Mrgprh (MAS-related GPR, member H)	2	84.8	84.4
Mrgprh (MAS-related GPR, member H)	3	84.4	73.8
Zic1 (zinc finger protein of the cerebellum 1)	1	92.4	96.4
Zic1 (zinc finger protein of the cerebellum 1)	2	99.8	98.5
Akap10 (A kinase anchor protein 10)	1	51.5	57.4
Akap10 (A kinase anchor protein 10)	2	114	93.5
Nfatc2ip	1	102	89.9
Nfatc2ip	2	97	89.9
Nfatc2ip	3	119	84.5
Sva (seminal vesicle antigen)	1	87	83.9
Sva (seminal vesicle antigen)	2	135 (active)	131
Sva (seminal vesicle antigen)	3	134 (active)	122
Lrrn1 (leucine rich repeat protein 1, neuronal)	1	55.7	81.2
Lrrn1 (leucine rich repeat protein 1, neuronal)	2	96.1	90.6
Lrrn1 (leucine rich repeat protein 1, neuronal)	3	92.2	89.6
Fip1l1 (factor interacting with PAPOLA and CPSF1)	1	55.4	63.5
Fip1l1 (factor interacting with PAPOLA and CPSF1)	2	114	102
Fip1l1 (factor interacting with PAPOLA and CPSF1)	3	61.3	48.5
Slc38a5	1	119	77.9
Slc38a5	2	86.9	86.5
Slc38a5	3	81.7	57.5
Rcl1 (RNA terminal phosphate cyclase-like 1)	1	80.2	80.9
Rcl1 (RNA terminal phosphate cyclase-like 1)	2	97.4	88.1
Rcl1 (RNA terminal phosphate cyclase-like 1)	3	96	88.9
Tmem44 (transmembrane protein 44)	1	71.6	61.4
Tmem44 (transmembrane protein 44)	2	40.4	42.8
Tmem44 (transmembrane protein 44)	3	76.3	83.8
Rbms3 (RNA binding motif, single stranded interacting protein)	1	20.7	26.2
Rbms3 (RNA binding motif, single stranded interacting protein)	2	135 (active)	96.7
Rbms3 (RNA binding motif, single stranded interacting protein)	3	61.6	52.7
Myg1 (melanocyte proliferating gene 1)	1	95.7	52.5
Myg1 (melanocyte proliferating gene 1)	2	84.3	83.8
Myg1 (melanocyte proliferating gene 1)	3	68.6	75.1
Oas1e (2'-5' oligoadenylate synthetase 1E)	1	85.2	72.5
Oas1e (2'-5' oligoadenylate synthetase 1E)	2	53.9	44.3
Oas1e (2'-5' oligoadenylate synthetase 1E)	3	48.9	43.4
Ch25h (cholesterol 25-hydroxylase)	1	86	77.6
Ch25h (cholesterol 25-hydroxylase)	2	91.6	43.1
Ch25h (cholesterol 25-hydroxylase)	3	54.2	58.1
St8sia1 (ST8 alpha-N-acetyl-neuraminide alpha-2,8-sialyltransferase 1)	1	58.4	73.3
St8sia1 (ST8 alpha-N-acetyl-neuraminide alpha-2,8-sialyltransferase 1)	2	92.2	71
St8sia1 (ST8 alpha-N-acetyl-neuraminide alpha-2,8-sialyltransferase 1)	3	81.7	79.9
Mppe1 (metallophosphoesterase 1)	1	75.8	97
Mppe1 (metallophosphoesterase 1)	2	86.9	85.6
Mppe1 (metallophosphoesterase 1)	3	66.5	74.3
Snrnp27 (small nuclear ribonucleoprotein 27 (U4/U6.U5))	1	68.5	94.4
Snrnp27 (small nuclear ribonucleoprotein 27 (U4/U6.U5))	2	97.1	58.2
Snrnp27 (small nuclear ribonucleoprotein 27 (U4/U6.U5))	3	56.2	54
D130079A08Rik (RIKEN cDNA D130079A08 gene)	1	76.9	100
D130079A08Rik (RIKEN cDNA D130079A08 gene)	2	94.7	80.2
D130079A08Rik (RIKEN cDNA D130079A08 gene)	3	72	72.7
Zdhhc16 (zinc finger, DHHC domain containing 16)	1	54.7	75.8
Zdhhc16 (zinc finger, DHHC domain containing 16)	2	50.9	74.8
Zdhhc16 (zinc finger, DHHC domain containing 16)	3	40.3	66.2
Or4c121 (olfactory receptor family 4 subfamily C member 121)	1	71.1	52.3
Or4c121 (olfactory receptor family 4 subfamily C member 121)	2	71.1	80.4
Or4c121 (olfactory receptor family 4 subfamily C member 121)	3	48.6	60.1
Eif3k (eukaryotic translation initiation factor 3, subunit K)	1	124 (active)	93.2
Eif3k (eukaryotic translation initiation factor 3, subunit K)	2	67.5	83.2
Eif3k (eukaryotic translation initiation factor 3, subunit K)	3	42.1	26.9
Zfp397 (zinc finger protein 397)	1	52.9	46.7
Zfp397 (zinc finger protein 397)	2	66.6	73.3
Zfp397 (zinc finger protein 397)	3	47.3	84.6
Speg (SPEG complex locus)	1	115	52.8
Speg (SPEG complex locus)	2	40.4	90.6
Speg (SPEG complex locus)	3	83.2	47.7
Rb1 (RB transcriptional corepressor 1)	1	104	84.8
Rb1 (RB transcriptional corepressor 1)	2	73.3	73.9
Rb1 (RB transcriptional corepressor 1)	3	73.3	81.4
Tnfsf12 (tumor necrosis factor (ligand) superfamily, member 12)	1	113	70.8
Tnfsf12 (tumor necrosis factor (ligand) superfamily, member 12)	2	68.7	81.2
Tnfsf12 (tumor necrosis factor (ligand) superfamily, member 12)	3	142 (active)	145
Zfp458 (zinc finger protein 458)	1	91.6	77.7
Zfp458 (zinc finger protein 458)	2	50.6	85
Zfp458 (zinc finger protein 458)	3	80.2	78.7
Ogfr (opioid growth factor receptor)	1	88.6	113
Ogfr (opioid growth factor receptor)	2	147 (active)	109
Ogfr (opioid growth factor receptor)	3	48	74.3
Slc1a1	1	127 (active)	69.5
Slc1a1	2	72	65.3
Slc1a1	3	81.8	93.2
Or1j14 (olfactory receptor family 1 subfamily J member 14)	1	68	63.8
Or1j14 (olfactory receptor family 1 subfamily J member 14)	2	52.3	45.5
Or1j14 (olfactory receptor family 1 subfamily J member 14)	3	48	57.7
Ofd1 (OFD1, centriole and centriolar satellite protein)	1	43	78.1
Ofd1 (OFD1, centriole and centriolar satellite protein)	2	77.9	69.5

Individual results from above:
Value for Rb1 (RB transcriptional corepressor 1) #2 under “viability (ATP), % of control”: 73.9
Mrgprh (MAS-related GPR, member H) #3, GFP, % of control: 84.4
Value of F630111L10Rik (RIKEN cDNA F630111L10 gene) #1 in “GFP, % of control”: 71.1
Eif3k (eukaryotic translation initiation factor 3, subunit K) #2, GFP, % of control → 67.5
Under “viability (ATP), % of control”, Nfatc2ip #3 has 84.5
Under “GFP, % of control”, Sgsm3 (small G protein signaling modulator 3) #3 reads 28
